Measurements reported in PubChem BioAssay AID1671195 (Yale University, 2021)

Aim: 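Knockdowns that increase or decrease uptake of fluorescent LDL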 (primary screen)
Cells: human Huh7 hepatoma cells
Knock-down reagent: siRNA pool against human genes, 18 nM
Timing: about 2 to 2.5 days of knockdown, then 8 h LDL uptake
Challenge: DiI-labelled LDL at 30 µg/ml for 8 h, in lipoprotein-deficient serum medium
Read-out: 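Fluorescent LDL signal imaged in cells, scaled to the plate median, robust z-score for each replicate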
Scale: robust z-score: higher = more LDL uptake after knockdown
Hit rule: 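a gene counts as active if at least two replicate z-scores exceed ±2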
The deposit covers about 22,000 reagents; shown is a random part of them. About 1,510 of them (6.9%) count as active. 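Active includes knockdowns raising or lowering LDL uptake; positive z-scores mean more uptake, negative mean less.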 Reagents against one gene are numbered here.

gene | reagent no. | robust z-score, replicate 1 | robust z-score, replicate 2 | robust z-score, replicate 3 | Outcome
HRH2 (GeneID 3274) | 1 | -1.52 | -1.96 | -1.7 | inactive
LOC390985 (retired record) (GeneID 390985) | 1 | -0.268 | -0.334 | -0.419 | inactive
TMEFF2 (GeneID 23671) | 1 | -1.43 | -0.642 | -1.79 | inactive
HMGA1 (GeneID 3159) | 1 | -1.11 | -0.425 | -1.16 | inactive
LRRC4C (GeneID 57689) | 1 | 0.0468 | -0.54 | -0.356 | inactive
RTN3 (GeneID 10313) | 1 | -0.0288 | 0.601 | 0.787 | inactive
RNF25 (GeneID 64320) | 1 | 0.829 | 0.0251 | 0.389 | inactive
MR1 (GeneID 3140) | 1 | -0.0293 | -0.615 | 0.1 | inactive
B4GALNT3 (GeneID 283358) | 1 | -1.21 | -0.65 | -1.07 | inactive
PDIA2 (GeneID 64714) | 1 | 1.58 | 1.23 | 1.96 | inactive
RPRD2 (GeneID 23248) | 1 | 0.498 | 0.207 | 0.469 | inactive
GMCL2 (GeneID 64396) | 1 | -1.16 | -1.23 | -0.756 | inactive
PRKAG1 (GeneID 5571) | 1 | 1.23 | 2.06 | 2.87 | active
GPALPP1 (GeneID 55425) | 1 | 0.245 | 1.77 | 1.1 | inactive
MRPL49 (GeneID 740) | 1 | 0.653 | 0.416 | -0.17 | inactive
MTMR4 (GeneID 9110) | 1 | -0.063 | -0.27 | -0.231 | inactive
PARVG (GeneID 64098) | 1 | -0.878 | -1.15 | -1.35 | inactive
ARHGEF26 (GeneID 26084) | 1 | -1.22 | -0.618 | 1.08 | inactive
ZC2HC1C (GeneID 79696) | 1 | 1.25 | 0.599 | 0.78 | inactive
MRGPRG-AS1 (GeneID 283303) | 1 | 0.0448 | -0.035 | -0.231 | inactive
HPR (GeneID 3250) | 1 | 1.6 | -2.1 | 2.28 | inactive
USP9X (GeneID 8239) | 1 | 0.339 | -0.614 | 0.453 | inactive
LOC441612 (retired record) (GeneID 441612) | 1 | -0.736 | -0.384 | -0.62 | inactive
JRKL (GeneID 8690) | 1 | 0.238 | -0.353 | 0.391 | inactive
OSBPL8 (GeneID 114882) | 1 | -2.28 | 0.157 | 0.118 | inactive
SMIM12 (GeneID 113444) | 1 | -1.58 | -0.545 | -1.34 | inactive
TRIM75 (GeneID 391714) | 1 | -1.15 | -1.31 | -1.25 | inactive
COX7C (GeneID 1350) | 1 | -0.237 | 0.26 | 0.252 | inactive
TBC1D12 (GeneID 23232) | 1 | 0.34 | 0.289 | 0.0988 | inactive
CHEK1 (GeneID 1111) | 1 | -1.24 | -0.315 | -0.874 | inactive
VPS35 (GeneID 55737) | 1 | 0.735 | 0.285 | 0.212 | inactive
FAM227A (GeneID 646851) | 1 | 0.333 | 0.492 | 0.55 | inactive
LOC401254 (retired record) (GeneID 401254) | 1 | 0.631 | -1.82 | 0.448 | inactive
LOC389275 (retired record) (GeneID 389275) | 1 | -0.696 | -0.427 | -0.54 | inactive
ROBO2 (GeneID 6092) | 1 | -0.885 | -0.823 | -0.674 | inactive
NRL (GeneID 4901) | 1 | 0.357 | -0.744 | -1.38 | inactive
FKBP2 (GeneID 2286) | 1 | -0.439 | -0.246 | -0.388 | inactive
FSIP2 (GeneID 401024) | 1 | -0.656 | -0.528 | -0.545 | inactive
FSIP2 (GeneID 401024) | 2 | -0.861 | -1.26 | -1.2 | inactive
SLC27A6 (GeneID 28965) | 1 | -0.108 | 0.299 | -0.75 | inactive
F2RL2 (GeneID 2151) | 1 | -1.22 | 0.154 | -0.372 | inactive
GABBR2 (GeneID 9568) | 1 | -1.02 | -1.81 | -1.6 | inactive
OR5K3 (GeneID 403277) | 1 | 0.726 | -1.4 | 0.771 | inactive
LOC439960 (retired record) (GeneID 439960) | 1 | -0.347 | -0.509 | -0.918 | inactive
GNMT (GeneID 27232) | 1 | -0.702 | -1.28 | -0.148 | inactive
CEACAM21 (GeneID 90273) | 1 | 0.226 | 0.522 | 0.807 | inactive
DTD1 (GeneID 92675) | 1 | -0.638 | -0.0653 | -0.371 | inactive
GCSAM (GeneID 257144) | 1 | -0.0461 | 0.518 | -0.0268 | inactive
LAMC2 (GeneID 3918) | 1 | -0.861 | -0.494 | -0.47 | inactive
PARK7 (GeneID 11315) | 1 | -0.455 | -0.0393 | -0.223 | inactive
FUNDC2 (GeneID 65991) | 1 | -1.31 | -0.803 | -1.27 | inactive
CDCA8 (GeneID 55143) | 1 | 0.678 | 1.49 | 0.243 | inactive
CCN5 (GeneID 8839) | 1 | 2.6 | 0.422 | 1.49 | inactive
SLC2A6 (GeneID 11182) | 1 | -0.347 | -0.625 | -0.262 | inactive
LINC00671 (GeneID 388387) | 1 | -1.01 | -1.1 | -0.33 | inactive
HOOK1 (GeneID 51361) | 1 | 1.17 | -0.613 | -1.26 | inactive
AUH (GeneID 549) | 1 | -1.76 | -1.31 | -1.64 | inactive
RAP2C (GeneID 57826) | 1 | 1.44 | 0.619 | 2.89 | inactive
SRL (GeneID 6345) | 1 | 0.256 | 0.634 | -0.143 | inactive
KCTD3 (GeneID 51133) | 1 | -0.232 | -0.975 | -0.01 | inactive
HMCES (GeneID 56941) | 1 | 0.62 | 0.0745 | -0.305 | inactive
LOC441666 (GeneID 441666) | 1 | 1.21 | 1.98 | 1.79 | inactive
RPS15AP9 (GeneID 441898) | 1 | -1.22 | -1.03 | -0.973 | inactive
ALDH1B1 (GeneID 219) | 1 | 0.421 | 0.238 | 0.129 | inactive
NDUFS5 (GeneID 4725) | 1 | 0.926 | -0.0446 | -0.13 | inactive
DPEP3 (GeneID 64180) | 1 | -0.986 | -1.17 | -0.791 | inactive
RPS27 (GeneID 6232) | 1 | 0.357 | -0.259 | 0.836 | inactive
SP140 (GeneID 11262) | 1 | 2.03 | 1.35 | 1.21 | inactive

8 neighbouring records already listed, quoted:
gene | reagent no. | robust z-score, replicate 1 | robust z-score, replicate 2 | robust z-score, replicate 3 | Outcome
LOC390985 (retired record) (GeneID 390985) | 1 | -0.268 | -0.334 | -0.419 | inactive
TMEFF2 (GeneID 23671) | 1 | -1.43 | -0.642 | -1.79 | inactive
HMGA1 (GeneID 3159) | 1 | -1.11 | -0.425 | -1.16 | inactive
LRRC4C (GeneID 57689) | 1 | 0.0468 | -0.54 | -0.356 | inactive
RTN3 (GeneID 10313) | 1 | -0.0288 | 0.601 | 0.787 | inactive
RNF25 (GeneID 64320) | 1 | 0.829 | 0.0251 | 0.389 | inactive
MR1 (GeneID 3140) | 1 | -0.0293 | -0.615 | 0.1 | inactive
B4GALNT3 (GeneID 283358) | 1 | -1.21 | -0.65 | -1.07 | inactive
